# Measured values: patent US5006510A, “Method for relieving chronic pain with a somatostatin analog composition” (priority 1989, dated 1991)
# Part of at least one peptide drawing is inferred or uncertain, most often the ends.
# Columns and labels:
# [1] = test system: GH (growth hormone) secretion; details: rats, serum GH; cited from earlier work
# [2] = test system: burning pain and hyperesthesia; assay: Open topical application to patients with chronic, disabling, burning pain; type: in vivo, human
# [3] = test system: deep burning pain; assay: Double-blind study in eight patients experiencing deep burning pain; type: in vivo, human
compound,measurement,setting,value
"C[C@@H](O)[C@@H]1NC(=O)[C@H](CCCCN)NC(=O)[C@@H](Cc2c[nH]c3ccccc23)NC(=O)[C@H](Cc2ccccc2)NC(=O)[C@@H](NC(=O)[C@H](N)Cc2ccccc2)CSSC[C@@H](C(=O)N[C@H](CO)[C@@H](C)O)NC1=O [octreotide, octreotide acetate]",GH secretion-inhibiting activity,[1],depression of serum GH levels
same,"removal of burning pain and hyperesthesia, all patients treated",[2]; all the patients treated with the inventive composition,removed all burning pain and hyperesthesia
same,duration of total pain relief (other qualitatively different pains),"[2]; some patients, highly variable from individual to individual",8 to 24 h
same,duration of elimination of burning pain and hyperesthesia,"[2]; topical, 1 μg/ml in 75% DMSO, total doses of less than 1 μg per day",5 to 24 h
same,patients reporting relief,"[3]; 75% DMSO with octreotide 1 μg/ml, four patients, none of four on 75% DMSO alone reported relief",All four patients treated with the octreotide reported relief
same,mood,[3]; majority of the patients treated with octreotide,improvement in mood
